In paper PMC10382480:
No constants are given. Whether binding was seen depends on the method and setting. Binding seen in cells or lysates may run through a third protein. Some entries that bind do so weakly or less than the wild type.

Chains of the proteins cited; added tags and fusions are not shown.
UniProt P25490: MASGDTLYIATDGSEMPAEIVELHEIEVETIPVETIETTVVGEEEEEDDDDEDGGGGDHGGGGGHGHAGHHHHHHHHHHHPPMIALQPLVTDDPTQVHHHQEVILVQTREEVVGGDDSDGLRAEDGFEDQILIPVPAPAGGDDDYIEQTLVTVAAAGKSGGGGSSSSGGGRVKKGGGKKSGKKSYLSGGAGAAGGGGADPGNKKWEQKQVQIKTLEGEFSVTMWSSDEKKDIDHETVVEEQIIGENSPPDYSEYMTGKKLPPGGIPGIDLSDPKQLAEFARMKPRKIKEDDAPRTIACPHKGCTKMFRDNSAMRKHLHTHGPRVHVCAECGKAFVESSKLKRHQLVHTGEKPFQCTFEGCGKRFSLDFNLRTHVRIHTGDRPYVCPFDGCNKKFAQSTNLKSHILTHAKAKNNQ
UniProt Q92769: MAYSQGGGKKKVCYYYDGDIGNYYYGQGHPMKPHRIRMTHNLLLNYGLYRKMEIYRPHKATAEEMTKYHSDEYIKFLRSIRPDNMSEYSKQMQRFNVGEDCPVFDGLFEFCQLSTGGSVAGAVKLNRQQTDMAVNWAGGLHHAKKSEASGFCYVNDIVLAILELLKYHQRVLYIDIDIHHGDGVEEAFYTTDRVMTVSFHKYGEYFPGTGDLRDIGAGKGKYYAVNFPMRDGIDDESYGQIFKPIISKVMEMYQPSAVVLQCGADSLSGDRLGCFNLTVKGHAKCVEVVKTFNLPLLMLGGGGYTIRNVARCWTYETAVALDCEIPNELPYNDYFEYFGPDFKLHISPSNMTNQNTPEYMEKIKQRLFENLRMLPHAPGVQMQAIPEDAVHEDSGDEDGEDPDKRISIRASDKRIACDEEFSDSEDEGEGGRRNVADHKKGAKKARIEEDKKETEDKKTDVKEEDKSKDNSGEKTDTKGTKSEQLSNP

Assays:
Flag-tagged YY1 = Flag-tagged YY1 (UniProt P25490); experiment: co-IP; HEK293T cells co-transfected with Flag-tagged YY1 and HA-tagged HDAC2 plasmids; immunoprecipitates analysed by immunoblot
[1] = biological target: Yin Yang 1 (YY1), endogenous in HK-2 cells (human (endogenous in HK-2)) (UniProt P25490); experiment: co-IP; endogenous proteins; total lysate of HK-2 cells treated with TNF-α for 48 h; anti-YY1 with protein A/G-agarose beads, overnight; immunoblot with anti-YY1 or anti-HDAC2

Substance | binding (Flag-tagged YY1) | binding [1]
HA-tagged HDAC2 (from UniProt Q92769 1-488) | binds | –
histone deacetylase 2 (HDAC2), endogenous in HK-2 cells (from UniProt Q92769 1-488) | – | binds
